No constants are given. Whether binding was seen depends on the method and setting. In cells and extracts the contact can be indirect. Some binding calls cover weakened binding; strength is not graded here.
Molecular target: FAM111A (Family with sequence similarity 111 member A), wild type (human) (UniProt Q96PZ2)
Experiment: co-IP; 293T cells transfected for 48 h; NP-40 lysis buffer (50 mM Tris-HCl pH 7.4, 150 mM NaCl, 0.1% NP-40) with 41 U/ml Benzonase; lysate (~1 mg protein) on anti-Flag beads 4 h at 4 °C, five washes; Western blotting

Chains of the proteins cited; added tags and fusions are not shown.
UniProt Q96PZ2: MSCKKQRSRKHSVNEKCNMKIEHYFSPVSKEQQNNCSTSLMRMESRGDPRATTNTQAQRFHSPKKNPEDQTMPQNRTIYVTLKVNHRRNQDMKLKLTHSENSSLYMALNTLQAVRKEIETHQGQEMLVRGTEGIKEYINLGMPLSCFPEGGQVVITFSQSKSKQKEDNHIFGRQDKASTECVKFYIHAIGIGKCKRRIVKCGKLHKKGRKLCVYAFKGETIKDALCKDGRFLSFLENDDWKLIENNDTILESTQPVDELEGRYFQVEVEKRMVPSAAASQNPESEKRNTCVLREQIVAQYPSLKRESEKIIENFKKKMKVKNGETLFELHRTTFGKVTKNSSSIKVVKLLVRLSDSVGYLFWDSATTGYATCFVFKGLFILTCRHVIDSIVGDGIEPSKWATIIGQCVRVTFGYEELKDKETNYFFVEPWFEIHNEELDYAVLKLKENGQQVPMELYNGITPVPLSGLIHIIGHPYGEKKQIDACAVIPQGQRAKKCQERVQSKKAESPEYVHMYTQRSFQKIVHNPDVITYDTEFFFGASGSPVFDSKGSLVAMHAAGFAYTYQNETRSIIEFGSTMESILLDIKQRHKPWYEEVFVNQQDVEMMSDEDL

- binding: binds
Substance: FAM111A (Family with sequence similarity 111 member A), wild type (from UniProt Q96PZ2 1-611)

— PMC7067828, “FAM111A protects replication forks from protein obstacles via its trypsin-like domain”
